Assay results published in patent publication US20210047411A1 (BIOND BIOLOGICS, published 2021).
Results are given in words; binding and its absence hold for the method and conditions named. Some binding calls cover weakened binding; strength is not graded here. Blank lines part the entries; values can stand above or below the binder they belong to.

By UniProt entry, the sequences of proteins in these tests, tags left out. Residues count along the entry.
UniProt P10747, residues 19-144: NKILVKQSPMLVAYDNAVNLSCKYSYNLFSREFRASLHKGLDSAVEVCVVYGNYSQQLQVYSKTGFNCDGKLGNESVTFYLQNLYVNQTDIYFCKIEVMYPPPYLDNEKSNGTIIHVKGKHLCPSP

Key:
[1] = target: sCD28 in plasma of cancer patients (human) (UniProt P10747); assay: sandwich ELISA on 20 melanoma patient samples; antibody #3 for capture
[2] = target: sCD28 in plasma of cancer patients (human) (UniProt P10747); assay: sandwich ELISA on 20 melanoma patient samples; antibody #1 for detection
[3] = target: sCD28 in plasma of cancer patients (human) (UniProt P10747); assay: about 1.5 µg antibody on magnetic beads mixed with plasma; remaining sCD28 by ELISA
[4] = target: sCD28 in plasma of cancer patients (human) (UniProt P10747); assay: antibody on tosyl-activated magnetic beads mixed with cancer patient plasma; remaining sCD28 by ELISA
[5] = target: sCD28 shed from activated human immune cells (human) (UniProt P10747); assay: sandwich ELISA on supernatants of PHA-stimulated T cells and SEB-stimulated PBMCs; antibody 1 as detection antibody
[6] = target: sCD28 shed from activated human immune cells (human) (UniProt P10747); assay: sandwich ELISA on supernatants of PHA-stimulated T cells and SEB-stimulated PBMCs; antibody 2 as capture antibody

binding [1]: binds
B1: Antibody #3 (antibody, mouse IgG1, kappa, V domains shown)
VH: EVQLQQFGAELVKPGASVKISCKASGYTFTDYNMDWVKQSHGKSLEWIGDINPNYDSTAYNQKFMGKATLTVDKSSNTAYMELRSLTSEDTAVYYCARSSPYYDSNHFDYWGQGTSLTVSS
VL: QIVLTQSPAIMSASPGEKVTMTCSARSSINYMHWFQQKPGTSPKRWIYDTSKLASGVPARFSGSGSGTSYSLTISNMEAEDAATYYCHQRNSYPFTFGSGTKLEIKR

binding [2]: binds | binding [3]: binds | binding [4]: binds | binding [5]: binds
B2: Antibody #1 (antibody, mouse IgG1, kappa, V domains shown)
VH: QIQLVQSGPELKKPGETVKISCKASGYTLTNYGMNWVKQAPGKGLKWMGWINTYTGKPTYVDDFKGRFAFSLETSASTAYLQINNLKNEDTATYFCARGDANQQFAYWGQGTLVTVSA
VL: DIKMTQSPSSMYASLGERVTITCKASQDINSYLSWFQQKPGKSPKTLIYRANRLVDGVPSRFSGSGSGQDYSLTISSLEYDDMGIYYCLQYDEFPPTFGAGTKLELKR

B3: Antibody #2 (antibody, mouse IgG2b, kappa, V domains shown)
VH: QVQLQQSGAELARPGASVKLSCKASGYTFTSYWMQWIKKRPGQGLEWIGAIYPGDGDTRYTQKFKGKATLTADKSSTTAYMQLSSLASEDSAVYFCARNYRYSSFGYWGQGTLVTVSA
VL: DIVMTQSPSSLTVTAGEKVTLSCKSSQSLLNSGNQKNYLTWYQQKPGQPPQLLIYWASTRESGVPDRFTGSGSGTDFTLTISSVQAEDLAVYYCQSDYSYPLTFGAGTKLELKR
binding [4]: binds | binding [6]: binds
